# Source: PubChem BioAssay AID1671190 (National Center for Advancing Translational Sciences (NCATS), 2021)
# The chains behind the UniProt entries cited, without tags or fusion partners. Where a name states a change or a piece, a line headed by the entry shows the natural chain unless it says otherwise.
# UniProt P18054: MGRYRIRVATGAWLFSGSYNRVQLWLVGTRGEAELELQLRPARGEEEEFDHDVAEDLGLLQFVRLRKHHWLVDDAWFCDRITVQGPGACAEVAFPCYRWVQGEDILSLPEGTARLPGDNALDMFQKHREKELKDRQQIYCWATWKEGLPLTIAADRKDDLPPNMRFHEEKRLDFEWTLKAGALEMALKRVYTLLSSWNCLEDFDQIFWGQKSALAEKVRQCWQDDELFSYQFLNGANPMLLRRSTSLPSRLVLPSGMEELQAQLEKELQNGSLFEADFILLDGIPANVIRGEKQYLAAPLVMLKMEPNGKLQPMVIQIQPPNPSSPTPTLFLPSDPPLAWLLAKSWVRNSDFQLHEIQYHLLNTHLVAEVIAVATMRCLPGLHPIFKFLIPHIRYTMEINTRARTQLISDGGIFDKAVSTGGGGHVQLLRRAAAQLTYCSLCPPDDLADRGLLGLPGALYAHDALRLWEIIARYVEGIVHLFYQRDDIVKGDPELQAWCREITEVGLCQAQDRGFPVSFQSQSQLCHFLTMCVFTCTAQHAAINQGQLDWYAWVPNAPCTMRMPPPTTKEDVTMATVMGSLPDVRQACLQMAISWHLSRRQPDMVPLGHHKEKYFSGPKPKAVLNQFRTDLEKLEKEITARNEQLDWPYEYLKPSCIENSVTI
# Among all 580,000 compounds or so, about 6,100 (1.1%) were called active. Inconclusive means that the source gave no clear call. Such entries were picked first, then a sample of the others. Calls come from the whole dose curve; as a rule, active = well fitted inhibition curve with a large enough effect; inconclusive = small, poorly fitted or top-dose-only effect, or another doubt; inactive = no such curve, though single readings can be large or run the other way. Potencies beside an inconclusive call are fits to weak or partial responses and may not hold up.
# Molecular target: Polyunsaturated fatty acid lipoxygenase ALOX12 (Homo sapiens) (UniProt P18054)
# Test: Primary qHTS assay for inhibitors of human arachidonate 12S-lipoxygenase (ALOX12): Round 2
# Conditions: purified 12hLO, xylenol orange hydroperoxide absorbance; activity change, negative = inhibition: at 108 µM (top of the series) unless noted
# Summary of the method: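 Hydroperoxide product was detected by ferrous iron/xylenol orange as the 573 to 405 nm absorbance ratio. Arachidonic acid at 40 uM (final) was turned over for 30 min at room temperature by 150 nM human 12hLO, pH 7.0 Hepes buffer, after 15 min compound preincubation.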
# % is set by controls: 0 for no effect and ±100 for the full control effect; potency is the fitted concentration of half-maximal effect.
Structure (SMILES),Potency,"activity change, negative = inhibition"
CC(=O)Nc1ccc(Nc2nc(-c3c(C)nc4ccccn34)cs2)cc1,"inconclusive: 31.6 µM [inhibitor, single point]",
COc1cc(C2c3c([nH]c(=O)[nH]c3=O)Nc3ccc4ccccc4c32)cc(OC)c1OC (stereo unspecified),"inconclusive: 39.8 µM [inhibitor, partial curve, poor fit]",
CC(=O)NCCNC(=O)Cc1c[nH]c2ccccc12,,inactive: -6.88%
CC(=O)N1CCN(c2ncnc3c2c(-c2ccccc2)cn3-c2cccc(C)c2)CC1,,inactive: -12.4%
CC(=O)c1ccc(-c2ccc(C(=O)OC(C)C#N)o2)cc1 (stereo unspecified),,inactive: -50%
CCC(=O)Nc1cccc(C(=O)OCc2cccc([N+](=O)[O-])c2)c1,,inactive: -6.97%
Cn1nc(C(C)(C)C)cc1NC(=O)Nc1cc(Cl)cc(Cl)c1,"inconclusive: 44.7 µM [inhibitor, partial curve, poor fit]",
Cc1ccc(-c2nnc(CCC(=O)N(C)Cc3nccs3)o2)s1,"inconclusive: 141 µM [inhibitor, single point]",
Oc1ccc(OCc2ccccc2)cc1,"inconclusive: 31.6 µM [inhibitor, partial curve, poor fit]",
Cc1cccc(OCCn2c(=S)[nH]c3ccccc32)c1,"inconclusive: 39.8 µM [inhibitor, partial curve, poor fit]",
Brc1ccsc1/C=N/Nc1ccccc1,"inconclusive: 5.01 µM [inhibitor, full curve, poor fit]",
O=C(CN(c1ccccc1F)S(=O)(=O)c1ccccc1)NCCN1CCOCC1,,inactive: 17.6%
COc1ccc(CN2CCN(C)CC2)cc1OCc1ccccc1,"inconclusive: 10 µM [inhibitor, full curve, poor fit]",
CC(C)Cn1c(SCC(=O)NCc2ccc(Cl)cc2)nc2ncccc2c1=O,"inconclusive: 141 µM [inhibitor, single point]",
CN(C)CCCC(=O)N1Cc2ccccc2CC2(CCN(CC3CCOCC3)CC2)C1,,inactive: 0.539% [at 6.33 µM]
CCCc1nc2ccc(Cl)cn2c1Cc1ccc(C)cc1,"inconclusive: 39.8 µM [inhibitor, partial curve, poor fit]",
N#Cc1cccc(NC(=O)CCNC(=O)c2ccccc2Cl)c1,"inconclusive: 31.6 µM [inhibitor, single point]",
COc1cccc(-c2noc(CC3CCN(C(=O)COc4cccc(C)c4)CC3)n2)c1,"inconclusive: 14.1 µM [inhibitor, full curve, poor fit]",
CC(C)Nc1nc(NC(N)=S)nc(NC(C)C)n1,"inconclusive: 50.1 µM [inhibitor, partial curve, poor fit]",
COc1ccccc1-c1cc(N2CCN(c3ccccn3)CC2)c2onc(C)c2n1,active: 89.1 µM,
CCOC(=O)CN(CC1CC1)C(=O)Cc1ccc(C)s1,"inconclusive: 44.7 µM [inhibitor, partial curve, poor fit]",

Structure (SMILES),Potency,"activity change, negative = inhibition"
COC(=O)CCC(=O)OC1(C)C(=O)C2=CN(C3CCCC3)C(c3ccc(OC)cc3)=CC2=C(Br)C1=O (stereo unspecified),"inconclusive: 44.7 µM [inhibitor, partial curve, poor fit]",
Cc1ccc(S(=O)(=O)/N=C2\C=C(NS(=O)(=O)c3ccccc3)C(=O)c3ccccc32)cc1,"inconclusive: 79.4 µM [inhibitor, partial curve, poor fit]",
Cc1ccc2cc(C(=O)N3CCC(N4CCCCC4)CC3)[nH]c2c1,,inactive: -6.04%
Cc1ccc(S(=O)(=O)/N=C(/Nc2nc(C)cs2)c2ccccc2)cc1,"inconclusive: 141 µM [inhibitor, single point]",
COc1ccccc1CNC(=O)CSc1nc2ccccc2nc1N1CCCC1,,inactive: 8.85%
COc1ccc(C(=O)CSc2nnc(C(CO)NC(=O)c3ccc(OC)cc3)n2C)cc1 (stereo unspecified),"inconclusive: 100 µM [inhibitor, single point]",
COc1cccc(NS(=O)(=O)c2ccc3[nH]cc(C(=O)NC(C)c4ccccc4)c(=O)c3c2)c1 (stereo unspecified),"inconclusive: 141 µM [inhibitor, single point]",
Cc1nnc([C@@H]2CC(F)(F)CN2C(=O)c2nn(C)c3ccccc23)o1,,inactive: 60%
O=C(O)c1cccc(NC(=O)c2cc(-c3cccc(Cl)c3)nc3ccccc23)c1,"inconclusive: 63.1 µM [inhibitor, partial curve, poor fit]",
CCCOc1ccc2c(c1)sc1ncc(NC(=O)c3ccc(C(C)(C)C)cc3)c(=O)n12,"inconclusive: 79.4 µM [inhibitor, single point]",
CCN(CC)c1cc(C)nc(Nc2ccc(NS(=O)(=O)c3ccc(OC)c(OC)c3)cc2)n1,"inconclusive: 50.1 µM [inhibitor, partial curve, poor fit]",
COCCNC(=O)C[C@@H]1C[C@H]2O[C@H](CN)[C@@H](O)[C@H]2O1,"inconclusive: 39.8 µM [inhibitor, full curve, poor fit]",
CCCOc1ccc([C@@H]2C3CN(C(=O)OCC)CC=C3C(C#N)=C(N)C2(C#N)C#N)cc1OC (stereo partly specified),"inconclusive: 50.1 µM [inhibitor, partial curve, poor fit]",
COCCS(=O)(=O)c1ccc(C(=O)O)cc1,"inconclusive: 28.2 µM [inhibitor, partial curve]",
CCOc1ccc(NC(=S)NC(=O)C2CCCC2)cc1,"inconclusive: 39.8 µM [inhibitor, partial curve]",
COc1ccccc1-c1ccc2c(c1)C(C)(Cc1ccc(F)c(Cl)c1)C(=O)N2 (stereo unspecified),"inconclusive: 89.1 µM [inhibitor, single point]",
S=c1nc2ccccc2c2nc(-c3ccccc3Br)[nH]n12,,inactive: -7.61%
S=C(Nc1ccc(Cl)cc1Cl)Nn1cnnc1,"inconclusive: 50.1 µM [inhibitor, partial curve, poor fit]",
Cc1c(C(=O)c2ccc[nH]2)oc2ccc(F)cc12,"inconclusive: 15.8 µM [inhibitor, partial curve, poor fit]",
O=C(c1cc(=O)c2ccccc2o1)N(Cc1ccc(Cl)cc1)Cc1ccco1,"inconclusive: 28.2 µM [inhibitor, partial curve, poor fit]",
